Results published in publication PMC9192764.
Results are given in words; binding and its absence hold for the method and conditions named. Binding seen in cells or lysates may run through a third protein. Some entries that bind do so weakly or less than the wild type.

B1: AcrB-∆71aa nascent chain (protein, UniProt P31224)
chain: MPNFFIDRPIFAWVIAIIIMLAGGLAILKLPVAQYPTIAPPAVTISASYEVQQQGVSVEKSSSSFLMVVGVINTDGTMTQEDISDYVAANMKDAISRTSGVGDVQLFGSQYAMRIWMNPNELNKFQLTPVDVITAIKAQNAQVAAGQLGGTPPVKGQQLNASIIAQTRLTSTEEFGKILLKVNQDGSRVLLRDVAKIELGGENYDIIAEFNGQPASGLGIKLATGANALDTAAAIRAELAKMEPFFPSGLKIVYPYDTTPFVKISIHEVVKTLVEAIILVFLVMYLFLQNFRATLIPTIAVPVVLLGTFAVLAAFGFSINTLTMFGMVLAIGLLVDDAIVVVENVERVMAEEGLPPKEATRKSMGQIQGALVGIAMVLSAVFVPMAFFGGSTGAIYRQFSITIVSAMALSVLVALILTPALCATMLKPIAKGDHGEGKKGFFGWFNRMFEKSTHHYTDSVGGILRSTGRYLVLYLIIVVGMAYLFVRLPSSFLPDEDQGVFMTMVQLPAGATQERTQKVLNEVTHYYLTKEKNNVESVFAVNGFGFAGRGQNTGIAFVSLKDWADRPGEENKVEAITMRATRAFSQIKDAMVFAFNLPAIVELGTATGFDFELIDQAGLGHEKLTQARNQLLAEAAKHPDMLTSVRPNGLEDTPQFKIDIDQEKAQALGVSINDINTTLGAAWGGSYVNDFIDRGRVKKVYVMSEAKYRMLPDDIGDWYVRAADGQMVPFSAFSSSRWEYGSPRLERYNGLPSMEILGQAAPGKSTGEAMELMEQLASKLPTGVGYDWTGMSYQERLSGNQAPSLYAISLIVVFLCLAALYESWSIPFSVMLVVPLGVIGALLAATFRGLTNDVYFQVGLLTTIGLSAKNAILIVEFAKDLMDKEGKGLIEATLDAVRMRLRPILMTSLAFILGVMPLVISTGAGSGAQNAVGTGVMGGMVTATVLAIFFVPVFFVVVRRRFSRKNEDIEHSHTVDHH
B2: OppC-43aa repeat nascent chain (protein, UniProt P0AFH6 1-302)
chain: MMLSKKNSETLENFSEKLEVEGRSLWQDARRRFMHNRAAVASLIVLVLIALFVILAPMLSQFAYDDTDWAMMSSAPDMESGHYFGTDSSGRDLLVRVAIGGRSQFAYDDTDWAMMSSAPDMESGHYFGTDSSGRDLLVRVAIGGRISLMVGVAAALVAVVVGTLYGSLSGYLGGKVDSVMMRLLEILNSFPFMFFVILLVTFFGQNILLIFVAIGMVSWLDMARIVRGQTLSLKRKEFIEAAQVGGVSTSGIVIRHIVPNVLGVVVVYASLLVPSMILFESFLSFLGLGTQEPLSSWGALLSDGANSMEVSPWLLLFPAGFLVVTLFCFNFIGDGLRDALDPKDR
B3: WT AcrB nascent chain (protein, UniProt P31224 1-1049)
chain: MPNFFIDRPIFAWVIAIIIMLAGGLAILKLPVAQYPTIAPPAVTISASYPGADAKTVQDTVTQVIEQNMNGIDNLMYMSSNSDSTGTVQITLTFESGTDADIAQVQVQNKLQLAMPLLPQEVQQQGVSVEKSSSSFLMVVGVINTDGTMTQEDISDYVAANMKDAISRTSGVGDVQLFGSQYAMRIWMNPNELNKFQLTPVDVITAIKAQNAQVAAGQLGGTPPVKGQQLNASIIAQTRLTSTEEFGKILLKVNQDGSRVLLRDVAKIELGGENYDIIAEFNGQPASGLGIKLATGANALDTAAAIRAELAKMEPFFPSGLKIVYPYDTTPFVKISIHEVVKTLVEAIILVFLVMYLFLQNFRATLIPTIAVPVVLLGTFAVLAAFGFSINTLTMFGMVLAIGLLVDDAIVVVENVERVMAEEGLPPKEATRKSMGQIQGALVGIAMVLSAVFVPMAFFGGSTGAIYRQFSITIVSAMALSVLVALILTPALCATMLKPIAKGDHGEGKKGFFGWFNRMFEKSTHHYTDSVGGILRSTGRYLVLYLIIVVGMAYLFVRLPSSFLPDEDQGVFMTMVQLPAGATQERTQKVLNEVTHYYLTKEKNNVESVFAVNGFGFAGRGQNTGIAFVSLKDWADRPGEENKVEAITMRATRAFSQIKDAMVFAFNLPAIVELGTATGFDFELIDQAGLGHEKLTQARNQLLAEAAKHPDMLTSVRPNGLEDTPQFKIDIDQEKAQALGVSINDINTTLGAAWGGSYVNDFIDRGRVKKVYVMSEAKYRMLPDDIGDWYVRAADGQMVPFSAFSSSRWEYGSPRLERYNGLPSMEILGQAAPGKSTGEAMELMEQLASKLPTGVGYDWTGMSYQERLSGNQAPSLYAISLIVVFLCLAALYESWSIPFSVMLVVPLGVIGALLAATFRGLTNDVYFQVGLLTTIGLSAKNAILIVEFAKDLMDKEGKGLIEATLDAVRMRLRPILMTSLAFILGVMPLVISTGAGSGAQNAVGTGVMGGMVTATVLAIFFVPVFFVVVRRRFSRKNEDIEHSHTVDHH
B4: WT OppC nascent chain (protein, UniProt P0AFH6 1-302)
chain: MMLSKKNSETLENFSEKLEVEGRSLWQDARRRFMHNRAAVASLIVLVLIALFVILAPMLSQFAYDDTDWAMMSSAPDMESGHYFGTDSSGRDLLVRVAIGGRISLMVGVAAALVAVVVGTLYGSLSGYLGGKVDSVMMRLLEILNSFPFMFFVILLVTFFGQNILLIFVAIGMVSWLDMARIVRGQTLSLKRKEFIEAAQVGGVSTSGIVIRHIVPNVLGVVVVYASLLVPSMILFESFLSFLGLGTQEPLSSWGALLSDGANSMEVSPWLLLFPAGFLVVTLFCFNFIGDGLRDALDPKDR

Target: SecA with a C-terminal thrombin-cleavable AviTag (chromosomal) (E. coli (endogenous in strain K-12 W3110)) (UniProt P10408)
Assay: selective ribosome profiling (EDC cross-linking, affinity purification of SecA-bound ribosome-nascent chain complexes, sequencing of ribosome-protected mRNA fragments); cryogenically lysed E. coli W3110 cells; SecA cross-linked to nascent chains in the lysate with 20 mM EDC at room temperature; MNase digestion; monosomes through a sucrose cushion; biotinylated Avi-tagged SecA held on streptavidin magnetic beads, eluted by thrombin; enrichment = SecA interactome over translatome at each codon; two biological replicates; also done in secA∆ZnBD, ∆secB, ∆tig and CCCP-treated cells

| binding | Binder |
| --- | --- |
| binds | B1 |
| binds | B2 |
| binds | B3 |
| no binding | B4 |
